Earlier results as cited in patent US7794934B2, “Predicting negative symptom change during drug treatment” (Centre for Addiction and Mental Health, priority 2006, dated 2010).
For at least one compound, name, drawing or mass did not settle the structure.

Legend:
[1] = test system: PCP-induced social withdrawal; conditions: rats (Corbett et al. 1995); cited from earlier work
[2] = test system: neurotoxicity induced by NMDA receptor antagonists; conditions: Farber 1993, 1996; Olney 1994; cited from earlier work
[3] = test system: NMDA-receptor-mediated neurotransmission; conditions: Arvanov et al. 1997; cited from earlier work
[4] = test system: mRNA encoding NMDA receptor subunits (NR1 and NR2 proteins); conditions: striatum; chronic treatment (Riva et al. 1997); cited from earlier work
[5] = test system: individuals resistant to typical antipsychotics; conditions: positive and negative symptomatology (Basile et al. 2002); cited from earlier work

## CN1CCN(C2=Nc3cc(Cl)ccc3Nc3ccccc32)CC1 [clozapine]
[1]
  reversal of PCP-induced social withdrawal: reversed
[2]
  prevention of neurotoxicity induced by NMDA receptor antagonists: strongly prevented
[3]
  enhancement of NMDA-receptor-mediated neurotransmission: produced an enhancement
[4]
  amount of mRNA encoding NMDA receptor subunits (NR1 and NR2 proteins): no change
[5]
  individuals resistant to typical antipsychotics with a beneficial clinical response: 30-60%
